Data published in article PMC4059888.
These are yes or no findings as the source states them, for the method shown. Some results given as binding are weak or reduced against the parent protein; the word gives no strength.

What was measured:
[1] = target: T1, Msl1 (mouse (endogenous in mESCs)) (UniProt Q6PDM1); assay: SEC; Superose 6 (10/300), 25 mM Tris pH 7.9, 1 mM DTT, 5 mM MgCl2, 150 mM KCl, 5% glycerol; 1 mg mESC nuclear extract; fractions analysed by Western blot for Nsl1, Msl1 and Mof
T1 sequence: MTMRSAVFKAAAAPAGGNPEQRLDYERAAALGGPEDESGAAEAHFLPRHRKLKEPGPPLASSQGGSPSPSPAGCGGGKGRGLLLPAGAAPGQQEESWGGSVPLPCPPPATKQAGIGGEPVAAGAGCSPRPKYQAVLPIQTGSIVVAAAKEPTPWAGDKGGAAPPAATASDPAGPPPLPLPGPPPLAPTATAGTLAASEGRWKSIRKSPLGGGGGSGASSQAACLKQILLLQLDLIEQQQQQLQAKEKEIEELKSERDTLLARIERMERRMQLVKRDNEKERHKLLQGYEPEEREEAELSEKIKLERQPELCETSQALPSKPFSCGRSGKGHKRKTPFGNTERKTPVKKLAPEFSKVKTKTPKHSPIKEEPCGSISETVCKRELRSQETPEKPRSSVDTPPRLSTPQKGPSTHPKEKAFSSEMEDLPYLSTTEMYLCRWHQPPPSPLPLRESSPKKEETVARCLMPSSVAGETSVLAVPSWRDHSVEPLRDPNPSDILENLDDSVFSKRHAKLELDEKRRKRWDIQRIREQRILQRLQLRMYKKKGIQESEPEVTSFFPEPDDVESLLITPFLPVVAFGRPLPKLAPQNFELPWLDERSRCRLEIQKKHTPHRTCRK

[2] = target: T2, Nsl1 (mouse (endogenous in mESCs)) (UniProt Q80TG1); assay: as above
T2 sequence: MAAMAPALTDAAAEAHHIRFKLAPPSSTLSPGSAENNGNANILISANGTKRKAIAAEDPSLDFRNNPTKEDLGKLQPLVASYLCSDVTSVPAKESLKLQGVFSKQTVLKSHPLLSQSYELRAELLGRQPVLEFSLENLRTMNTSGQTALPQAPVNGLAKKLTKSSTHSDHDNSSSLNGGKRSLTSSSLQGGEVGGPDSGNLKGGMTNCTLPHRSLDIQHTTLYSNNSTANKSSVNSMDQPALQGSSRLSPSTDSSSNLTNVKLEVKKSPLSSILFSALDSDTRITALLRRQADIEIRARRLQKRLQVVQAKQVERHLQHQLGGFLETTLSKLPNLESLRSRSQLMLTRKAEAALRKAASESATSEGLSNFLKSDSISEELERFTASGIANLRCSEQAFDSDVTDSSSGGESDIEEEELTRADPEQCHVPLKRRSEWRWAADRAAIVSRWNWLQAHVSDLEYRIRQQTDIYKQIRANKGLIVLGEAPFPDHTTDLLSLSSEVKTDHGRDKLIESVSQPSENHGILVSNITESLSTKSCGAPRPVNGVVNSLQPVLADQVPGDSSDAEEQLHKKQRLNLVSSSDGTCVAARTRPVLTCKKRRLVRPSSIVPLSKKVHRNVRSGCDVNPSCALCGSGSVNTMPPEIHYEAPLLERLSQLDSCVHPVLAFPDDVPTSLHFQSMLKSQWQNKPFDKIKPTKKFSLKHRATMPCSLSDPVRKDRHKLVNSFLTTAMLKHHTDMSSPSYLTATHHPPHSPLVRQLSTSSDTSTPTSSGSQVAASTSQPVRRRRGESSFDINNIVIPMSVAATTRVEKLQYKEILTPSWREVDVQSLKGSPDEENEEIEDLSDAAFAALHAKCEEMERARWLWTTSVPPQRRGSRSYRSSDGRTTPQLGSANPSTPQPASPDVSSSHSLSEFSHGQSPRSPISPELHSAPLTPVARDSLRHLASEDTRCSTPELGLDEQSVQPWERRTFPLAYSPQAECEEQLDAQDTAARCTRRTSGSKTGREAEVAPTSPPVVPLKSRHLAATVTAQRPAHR

B1: Mof (male absent on the first) (enzyme, UniProt Q9D1P2 1-458)
chain: MAAQGATAAVAATTSGTVGEGEPGPGENAAVEGPARSPGRVSPPTPARGEPEVTVEIGETYLCRRPDSTWHSAEVIQSRVNDQEGREEFYVHYVGFNRRLDEWVDKNRLALTKTVKDAVQKNSEKYLSELAEQPERKITRNQKRKHDEINHVQKTYAEMDPTTAALEKEHEAITKVKYVDKIHIGNYEIDAWYFSPFPEDYGKQPKLWLCEYCLKYMKFEKSYRFHLGQCQWRQPPGKEIYRKSNISVYEVDGKDHKIYCQNLCLLAKLFLDHKTLYFDVEPFVFYILTEVDRQGAHIVGYFSKEKESPDGNNVACILTLPPYQRRGYGKFLIAFSYELSKLESTVGSPEKPLSDLGKLSYRSYWSWVLLEILRDFRGTLSIKDLSQMTSITQNDIISTLQSLNMVKYWKGQHVICVTPKLVEEHLKSAQYKKPPITVDSVCLKWAPPKHKQVKLSKK
binding [1]: binds
binding [2]: binds
